Experimental data published in PubChem BioAssay AID298 (DTP/NCI, 2004).
The list does not hold the whole screen: it gathers tests that were run many times, whatever their T/C, doses with no T/C, and many T/C values between a quarter and a half above the control. Other doses and runs of a compound stand elsewhere. T/C gives the treated animals as a percentage of the vehicle group. Schedules are NCI's codes, read here as Q, the interval in days (D) or hours (H), X, the number of doses. Some T/C values carry the count of animals alive at the toxicity check (mostly the fifth day); without a count, all were alive then. Some doses were run more than once; their values stand side by side, smallest first. Additions like (4×) count equal records among those shown. Some T/C values are negative: the treated tumours shrank. Some doses have a count of surviving animals in place of a T/C: the source holds a T/C of zero for them, seemingly a mark for toxic or unscored doses. Survivors were counted at the toxicity check, usually on the fifth day, unless a day is given; later deaths do not show.

Tested on: MX-1 breast xenograft, intrarenal, nude mice, tumor weight
Experiment: NCI In Vivo Anticancer Drug Screen. Data for tumor model Human Mammary Carcinoma MX-1 Xenograft (intrarenal inoculation) in NU/NU BALB/C (nude) mice
Conditions: T/C endpoint: mean tumor weight change, higher T/C = larger tumour; for T/C: evaluated on day 11
In short: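 Antitumor activity is expressed as a T/C ratio. The treated group's tumor size or survival is compared against the vehicle-treated control group in mice bearing transplanted tumors.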

[1] = dose: 2.25 mg/kg/injection, schedule: Q01DX009 (ip), vehicle: saline
[2] = dose: 600.0 mg/kg/injection, schedule: Q04DX003 (ip), vehicle: suspension in saline
[3] = dose: 1200.0 mg/kg/injection, schedule: Q04DX003 (ip), vehicle: suspension in saline
[4] = dose: 25.0 mg/kg/injection, schedule: Q04DX003 (ip), vehicle: Klucel (hydroxypropylcellulose) (HPC)
[5] = dose: 600.0 mg/kg/injection, schedule: Q04DX003 (ip), vehicle: saline with Tween-80
[6] = dose: 1200.0 mg/kg/injection, schedule: Q04DX003 (ip), vehicle: saline with Tween-80
[7] = dose: 600.0 mg/kg/injection, schedule: Q04DX003 (sc), vehicle: saline with Tween-80

Nc1ccn([C@@H]2C=C(CO)[C@@H](O)[C@H]2O)c(=O)n1
T/C (dose: 0.67 mg/kg/injection, schedule: Q01DX009 (ip), vehicle: saline): 13, 24 (2×), 48 % of control (2×)
T/C (dose: 1.0 mg/kg/injection, schedule: Q01DX009 (ip), vehicle: saline): 8 (2×), 9, 16 (2×), 17 % of control [5 of 6 alive on day 11]
T/C (dose: 1.5 mg/kg/injection, schedule: Q01DX009 (ip), vehicle: saline): 5 (2×) and 6 % of control
T/C [1]: -17 % of control [4 of 6 alive on day 11] (2×)
survivor count [1]: 1 of 6 on day 11
survivor count (dose: 4.0 mg/kg/injection, schedule: Q01DX009 (ip), vehicle: saline): 1 of 6 on day 11

NC(=S)N/N=C/c1ncccc1O
survivor count [2]: 2 of 6 on day 11
survivor count [3]: 0 of 6 on day 11

O=NN(CCCl)C(=O)NCCO
survivor count (dose: 25.0 mg/kg/injection, schedule: Q04DX003 (sc), vehicle: water): 0 of 3 on day 11

O=S(=O)(c1cccc(N=C=S)c1)c1cccc(N=C=S)c1
T/C [4]: 132 % of control

O=C(Nc1cccc(O)c1)C(Cl)=C(Cl)Cl
survivor count (dose: 50.0 mg/kg/injection, schedule: Q04DX003 (ip), vehicle: other): 0 of 6 on day 11
survivor count (dose: 100.0 mg/kg/injection, schedule: Q04DX003 (ip), vehicle: DMSO): 0 of 6 on day 11
survivor count (dose: 100.0 mg/kg/injection, schedule: Q04DX003 (ip), vehicle: other): 0 of 5 on day 11

CC(=O)O[C@H]1C(=O)[C@@]2(C)[C@H]([C@H](OC(=O)c3ccccc3)[C@]3(O)C[C@H](OC(=O)[C@H](O)[C@@H](NC(=O)c4ccccc4)c4ccccc4)C(C)=C1C3(C)C)[C@]1(OC(C)=O)CO[C@@H]1C[C@@H]2O
survivor count (dose: 7.5 mg/kg/injection, schedule: Q01DX009 (ip), vehicle: Klucel (hydroxypropylcellulose) (HPC)): 3 of 5 on day 11
survivor count (dose: 15.0 mg/kg/injection, schedule: Q01DX009 (ip), vehicle: Klucel (hydroxypropylcellulose) (HPC)): 0 of 5 on day 11
survivor count (dose: 20.0 mg/kg/injection, schedule: Q01DX009 (ip), vehicle: Klucel (hydroxypropylcellulose) (HPC)): 2 of 6 on day 11
survivor count (dose: 22.4 mg/kg/injection, schedule: Q01DX009 (ip), vehicle: Klucel (hydroxypropylcellulose) (HPC)): 3 of 6 on day 11
survivor count (dose: 30.0 mg/kg/injection, schedule: Q01DX009 (ip), vehicle: Klucel (hydroxypropylcellulose) (HPC)): 1 of 6 on day 11
survivor count (dose: 40.0 mg/kg/injection, schedule: Q01DX009 (ip), vehicle: Klucel (hydroxypropylcellulose) (HPC)): 0 of 6 on day 11

COc1ccc(C(C)c2cc3c(cc2OC)OCO3)cc1 (stereo not drawn)
survivor count (dose: 150.0 mg/kg/injection, schedule: Q04DX003 (ip), vehicle: saline with Tween-80): 1 of 6 on day 11
survivor count (dose: 300.0 mg/kg/injection, schedule: Q04DX003 (ip), vehicle: saline with Tween-80): 0 of 6 on day 11
survivor count [5]: 0 of 6 on day 11
survivor count [6]: 0 of 6 on day 11

CCC1(O)C(=O)OCc2c1cc1n(c2=O)Cc2cc3cc4c(cc3nc2-1)OCO4 (stereo not drawn)
survivor count (dose: 8.0 mg/kg/injection, schedule: Q04DX003 (ip), vehicle: saline with Tween-80): 0 of 6 on day 11
survivor count (dose: 16.0 mg/kg/injection, schedule: Q04DX003 (ip), vehicle: saline with Tween-80): 0 of 6 on day 11
survivor count (dose: 32.0 mg/kg/injection, schedule: Q04DX003 (ip), vehicle: saline with Tween-80): 0 of 6 on day 11

CC(=O)Nc1cscc1NC(C)=O
T/C [7]: 135 % of control

C/C(=N\NC(=S)N1CCN(c2ccccn2)CC1)c1ccccn1
T/C (dose: 37.5 mg/kg/injection, schedule: Q04DX003 (sc), vehicle: water): 135 % of control
survivor count (dose: 150.0 mg/kg/injection, schedule: Q04DX003 (sc), vehicle: water): 3 of 6 on day 11
survivor count (dose: 300.0 mg/kg/injection, schedule: Q04DX003 (sc), vehicle: water): 0 of 6 on day 11

Oc1cccc2ccccc12
survivor count (dose: 300.0 mg/kg/injection, schedule: Q04DX003 (ip), vehicle: water): 1 of 6 on day 11
survivor count (dose: 600.0 mg/kg/injection, schedule: Q04DX003 (ip), vehicle: water): 0 of 6 on day 11
survivor count (dose: 1200.0 mg/kg/injection, schedule: Q04DX003 (ip), vehicle: water): 0 of 6 on day 11

CSc1cc(=O)n2c3ccccc3c3ccnc1c32
survivor count (dose: 640.0 mg/kg/injection, schedule: Q04DX003 (sc), vehicle: saline with Tween-80): 2 of 5 on day 11

CN=C(NC)c1ccc(NC(=O)/C=C\c2ccc(/C=C/C(=O)Nc3ccc(C(=NC)NC)cc3)cc2)cc1
survivor count (dose: 12.5 mg/kg/injection, schedule: Q04DX003 (ip), vehicle: Klucel (hydroxypropylcellulose) (HPC)): 2 of 6 on day 11
survivor count [4]: 0 of 6 on day 11
survivor count (dose: 50.0 mg/kg/injection, schedule: Q04DX003 (ip), vehicle: Klucel (hydroxypropylcellulose) (HPC)): 0 of 6 on day 11

CC#CCOCC(O)CCl (stereo not drawn)
survivor count (dose: 300.0 mg/kg/injection, schedule: Q04DX003 (ip), vehicle: suspension in saline): 3 of 6 on day 11
survivor count [2]: 1 of 6 on day 11 and 3 of 6 on day 11
survivor count [3]: 0 of 6 on day 11

Nc1c(/C=C/c2cc3cc(C4=NCCN4)ccc3o2)[nH]c2cc(C3=NCCN3)ccc12
survivor count (dose: 300.0 mg/kg/injection, schedule: Q04DX003 (ip), vehicle: Klucel (hydroxypropylcellulose) (HPC)): 0 of 6 on day 11

N#CCS(=O)(=O)c1cccc[n+]1[O-]
survivor count [5]: 1 of 6 on day 11
survivor count [6]: 0 of 6 on day 11

CCN(CC)Cc1cc2[nH]c3c4ccc(Cl)cc4ncc3c2cc1OC
T/C (dose: 150.0 mg/kg/injection, schedule: Q04DX003 (sc), vehicle: saline with Tween-80): 137 % of control [5 of 6 alive on day 11]
survivor count [7]: 0 of 6 on day 11

O=C(NC(Cc1ccc(I)cc1)C(=O)O)c1ccc(Br)cc1 (stereo not drawn)
T/C (dose: 37.5 mg/kg/injection, schedule: Q04DX003 (ip), vehicle: sodium bicarbonate): 128 % of control
survivor count (dose: 300.0 mg/kg/injection, schedule: Q04DX003 (ip), vehicle: sodium bicarbonate): 1 of 6 on day 11

O=c1[nH]c(=O)n(C2CC(O)C(CO)O2)cc1F (stereo not drawn)
survivor count (dose: 200.0 mg/kg/injection, schedule: Q01DX010 (sc), vehicle: water): 0 of 3 on day 11 and 1 of 3 on day 11

CNC=O
survivor count (dose: 800.0 mg/kg/injection, schedule: Q01DX010 (sc), vehicle: saline): 1 of 6 on day 11

NC1=NC(=O)N2CC12 (stereo not drawn)
survivor count (dose: 400.0 mg/kg/injection, schedule: Q04DX003 (sc), vehicle: saline): 2 of 6 on day 11

COc1cc(/C=C/[N+](=O)[O-])cc(Br)c1OC
survivor count (dose: 50.0 mg/kg/injection, schedule: Q04DX003 (ip), vehicle: saline with Tween-80): 3 of 6 on day 11
survivor count (dose: 100.0 mg/kg/injection, schedule: Q04DX003 (ip), vehicle: saline with Tween-80): 2 of 6 on day 11
survivor count (dose: 200.0 mg/kg/injection, schedule: Q04DX003 (ip), vehicle: saline with Tween-80): 0 of 6 on day 11

CCN(CC)CCOCCO
T/C (dose: 300.0 mg/kg/injection, schedule: Q04DX003 (sc), vehicle: saline): 129 % of control
survivor count (dose: 1200.0 mg/kg/injection, schedule: Q04DX003 (sc), vehicle: saline): 3 of 6 on day 11
survivor count (dose: 2400.0 mg/kg/injection, schedule: Q04DX003 (sc), vehicle: saline): 0 of 6 on day 11

O=NN(CCCl)C(=O)NCCCl
survivor count (dose: 60.0 mg/kg/injection, schedule: Q04DX003 (sc), vehicle: Klucel (hydroxypropylcellulose) (HPC)): 0 of 3 on day 11
survivor count (dose: 120.0 mg/kg/injection, schedule: Q04DX003 (sc), vehicle: Klucel (hydroxypropylcellulose) (HPC)): 0 of 3 on day 11
